Measured values as given in patent US20250057969A1 (priority 2023, published 2025).

Experiment: general procedure: solution-phase peptide synthesis; HATU/DIPEA; HBTU/DIEA
Settings: conjugation step
In the case of “(2S,3S,4S,5R,6S)-6-(4-((5S,8S,11S,12R)-11-((S)-sec-butyl)-12-(2-((S)-2-((1R,2R)-3-(((1S,2R)-1-hydroxy-1-phenylpropan-2-yl)amino)-1-methoxy-2-methyl-3-oxopropyl)pyrrolidin-1-yl)-2-oxoethyl)-5,8-diisopropyl-4,10-dimethyl-3,6,9-trioxo-2,13-dioxa-4,7,10-triazatetradecyl)-2-(3-(2-((3-((3-(2,5-dioxo-2,5-dihydro-1H-pyrrol-1-yl)propanamido)methyl)-1-(2,5,8,11,14,17,20,23,26,29,32,35-dodecaoxaoctatriacontan-38-oyl)azetidin-3-yl)oxy)acetamido)propanamido)phenoxy)-3,4,5-trihydroxytetrahydro-2H-pyran-2-carboxylic acid”, the conjugation yield is reported as 50.5%.
With “(2S,3S,4S,5R,6S)-6-(4-((5S,8S,11S,12R)-11-((S)-sec-butyl)-12-(2-((S)-2-((1R,2R)-3-(((1S,2R)-1-hydroxy-1-phenylpropan-2-yl)amino)-1-methoxy-2-methyl-3-oxopropyl)pyrrolidin-1-yl)-2-oxoethyl)-5,8-diisopropyl-4,10-dimethyl-3,6,9-trioxo-2,13-dioxa-4,7,10-triazatetradecyl)-2-((3-(2-((3-((3-(2,5-dioxo-2,5-dihydro-1H-pyrrol-1-yl)propanamido)methyl)-1-(2,5,8,11,14,17,20,23,26,29,32,35-dodecaoxaoctatriacontan-38-oyl)azetidin-3-yl)oxy)acetamido)propanamido)methyl)phenoxy)-3,4,5-trihydroxytetrahydro-2H-pyran-2-carboxylic acid” the conjugation yield was 20%.
With “3-((3-(2-((3-((3-(2,5-dioxo-2,5-dihydro-1H-pyrrol-1-yl)propanamido)methyl)-1-(2,5,8,11,14,17,20,23,26,29,32,35-dodecaoxaoctatriacontan-38-oyl)azetidin-3-yl)oxy)acetamido)propanamido)methyl)-4-(((2S,3R,4S,5R,6R)-3,4,5-trihydroxy-6-(hydroxymethyl)tetrahydro-2H-pyran-2-yl)oxy)benzyl ((S)-1-(((S)-1-(((3R,4S,5S)-1-((S)-2-((1R,2R)-3-(((1S,2R)-1-hydroxy-1-phenylpropan-2-yl)amino)-1-methoxy-2-methyl-3-oxopropyl)pyrrolidin-1-yl)-3-methoxy-5-methyl-1-oxoheptan-4-yl)(methyl)amino)-3-methyl-1-oxobutan-2-yl)amino)-3-methyl-1-oxobutan-2-yl)(methyl)carbamate” the conjugation yield was 30%.

Same assay, conditions: late stage modification step
“(2S,3S,4S,5R,6S)-6-(4-((5S,8S,11S,12R)-11-((S)-sec-butyl)-12-(2-((S)-2-((1R,2R)-3-(((1S,2R)-1-hydroxy-1-phenylpropan-2-yl)amino)-1-methoxy-2-methyl-3-oxopropyl)pyrrolidin-1-yl)-2-oxoethyl)-5,8-diisopropyl-4,10-dimethyl-3,6,9-trioxo-2,13-dioxa-4,7,10-triazatetradecyl)-2-((3-(2-((3-((3-(2,5-dioxo-2,5-dihydro-1H-pyrrol-1-yl)propanamido)methyl)-1-(2,5,8,11,14,17,20,23,26,29,32,35-dodecaoxaoctatriacontan-38-oyl)azetidin-3-yl)oxy)acetamido)propanamido)methyl)phenoxy)-3,4,5-trihydroxytetrahydro-2H-pyran-2-carboxylic acid” showed a step yield of 35.7%.
In the case of “(2S,3S,4S,5R,6S)-6-(4-((5S,8S,11S,12R)-11-((S)-sec-butyl)-12-(2-((S)-2-((1R,2R)-3-(((1S,2R)-1-hydroxy-1-phenylpropan-2-yl)amino)-1-methoxy-2-methyl-3-oxopropyl)pyrrolidin-1-yl)-2-oxoethyl)-5,8-diisopropyl-4,10-dimethyl-3,6,9-trioxo-2,13-dioxa-4,7,10-triazatetradecyl)-2-((2-((3-((3-(2,5-dioxo-2,5-dihydro-1H-pyrrol-1-yl)propanamido)methyl)-1-(2,5,8,11,14,17,20,23,26,29,32,35-dodecaoxaoctatriacontan-38-oyl)azetidin-3-yl)oxy)acetamido)methyl)phenoxy)-3,4,5-trihydroxytetrahydro-2H-pyran-2-carboxylic acid”, the step yield is reported as 65%.
“(2S,3S,4S,5R,6S)-6-(4-((5S,8S,11S,12R)-11-((S)-sec-butyl)-12-(2-((S)-2-((1R,2R)-3-(((1S,2R)-1-hydroxy-1-phenylpropan-2-yl)amino)-1-methoxy-2-methyl-3-oxopropyl)pyrrolidin-1-yl)-2-oxoethyl)-5,8-diisopropyl-4,10-dimethyl-3,6,9-trioxo-2,13-dioxa-4,7,10-triazatetradecyl)-2-((S)-44-(3-(2,5-dioxo-2,5-dihydro-1H-pyrrol-1-yl)propanamido)-38,45-dioxo-2,5,8,11,14,17,20,23,26,29,32,35-dodecaoxa-39,46-diazanonatetracontan-49-amido)phenoxy)-3,4,5-trihydroxytetrahydro-2H-pyran-2-carboxylic acid” showed a step yield of 11%.
“(2S,3S,4S,5R,6S)-6-(4-((5S,8S,11S,12R)-11-((S)-sec-butyl)-12-(2-((S)-2-((1R,2R)-3-(((1S,2R)-1-hydroxy-1-phenylpropan-2-yl)amino)-1-methoxy-2-methyl-3-oxopropyl)pyrrolidin-1-yl)-2-oxoethyl)-5,8-diisopropyl-4,10-dimethyl-3,6,9-trioxo-2,13-dioxa-4,7,10-triazatetradecyl)-2-((S)-44-(3-(2,5-dioxo-2,5-dihydro-1H-pyrrol-1-yl)propanamido)-38,45,49-trioxo-2,5,8,11,14,17,20,23,26,29,32,35-dodecaoxa-39,46,50-triazahenpentacontan-51-yl)phenoxy)-3,4,5-trihydroxytetrahydro-2H-pyran-2-carboxylic acid” gave a step yield of 25%.
“(2S,3S,4S,5R,6S)-6-(2-((3-(2-((3-((2-bromoacetamido)methyl)-1-(2,5,8,11,14,17,20,23,26,29,32,35-dodecaoxaoctatriacontan-38-oyl)azetidin-3-yl)oxy)acetamido)propanamido)methyl)-4-((5S,8S,11S,12R)-11-((S)-sec-butyl)-12-(2-((S)-2-((1R,2R)-3-(((1S,2R)-1-hydroxy-1-phenylpropan-2-yl)amino)-1-methoxy-2-methyl-3-oxopropyl)pyrrolidin-1-yl)-2-oxoethyl)-5,8-diisopropyl-4,10-dimethyl-3,6,9-trioxo-2,13-dioxa-4,7,10-triazatetradecyl)phenoxy)-3,4,5-trihydroxytetrahydro-2H-pyran-2-carboxylic acid” showed a step yield of 80%.
